Measurements published in doi:10.1101/2020.09.06.285171.
These are yes or no findings as the source states them, for the method shown. For part of these data: Tags and fused reporters may be left off the sequences shown.

By UniProt entry, the sequences of proteins in these tests, tags left out. Residues count along the entry.
UniProt P79114, residues 1-935: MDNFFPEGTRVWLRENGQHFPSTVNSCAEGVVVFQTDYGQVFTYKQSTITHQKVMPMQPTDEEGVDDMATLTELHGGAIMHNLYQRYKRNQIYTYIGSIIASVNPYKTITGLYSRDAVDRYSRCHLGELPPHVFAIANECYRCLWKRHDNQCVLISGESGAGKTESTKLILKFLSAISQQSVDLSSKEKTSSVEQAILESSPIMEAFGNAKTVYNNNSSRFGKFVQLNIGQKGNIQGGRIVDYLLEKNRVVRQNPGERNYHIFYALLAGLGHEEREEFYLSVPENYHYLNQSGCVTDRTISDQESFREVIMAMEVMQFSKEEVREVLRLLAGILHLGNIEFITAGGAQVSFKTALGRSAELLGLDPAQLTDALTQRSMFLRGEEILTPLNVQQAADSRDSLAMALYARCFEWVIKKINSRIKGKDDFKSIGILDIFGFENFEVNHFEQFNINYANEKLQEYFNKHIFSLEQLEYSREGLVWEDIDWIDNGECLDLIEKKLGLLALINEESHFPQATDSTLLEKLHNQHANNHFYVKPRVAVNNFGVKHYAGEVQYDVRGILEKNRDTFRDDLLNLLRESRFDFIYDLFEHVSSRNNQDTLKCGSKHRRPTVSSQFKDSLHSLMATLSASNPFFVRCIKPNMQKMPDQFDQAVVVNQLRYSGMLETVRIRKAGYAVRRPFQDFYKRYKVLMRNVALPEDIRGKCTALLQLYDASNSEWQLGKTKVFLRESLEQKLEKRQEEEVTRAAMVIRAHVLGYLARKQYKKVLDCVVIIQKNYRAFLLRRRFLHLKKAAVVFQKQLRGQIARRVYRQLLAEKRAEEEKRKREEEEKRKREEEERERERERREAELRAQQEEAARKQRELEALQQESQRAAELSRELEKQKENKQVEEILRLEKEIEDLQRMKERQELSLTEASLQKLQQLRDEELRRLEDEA

How the values were obtained:
[1] = target: EGFP-MYO10MD (Bos taurus (Bt)) (UniProt P79114); assay: in-cell filopodial tip enrichment assay with a chimeric myosin
[2] = target: mCherry-MYO10MD (Bos taurus (Bt)) (UniProt P79114); assay: as above

| binding [1] | binding [2] | Binder |
| --- | --- | --- |
| no binding | – | mCherry-ANKS4B (ankyrin repeat and sterile a motif domain containing 4B) (protein, UniProt Q8N8V4 1-417) MSTRYHQAASDSYLELLKEATKRDLNLSDEDGMTPTLLAAYHGNLEALEIICSRGGDPDRCDIWGNTPLHFAASNGHAHCVSFLVNFGANIFALDNDLQTPLDAAASREQNECVALLDKAATAQNIMNPKKVTRLKEQAQKNARRQIKECERLQEKHQNKMAHTYSKEESGTLSSSKGTFSRSSPSNASAPGTFGSLSKGIKDTFKIKFKKNKDTAEQVGKEGRSGQRNVMEVFREEEEDSFSGDFKEKLQLSAEEDGSVHHESILNRPGLGSIVFRRNRISSPEDISDSKREFGFKLPSELLQRQGASEADEGAADEEGEENGLKDDLPWDDDEVEWEEDVVDATPLEVFLLSQHLEEFLPIFKREQIDLEALLLCSDEDLQSIQMQLGPRKKVLNAINRRKQVLQQPGQLVDTSL |
| – | no binding | CDHR2-EGFP (protein, UniProt Q9BYE9 21-1310) NVAPKFLANMTSVILPEDLPVGAQAFWLVAEDQDNDPLTYGMSGPNAYFFAVTPKTGEVKLASALDYETLYTFKVTISVSDPYIQVQREMLVIVEDRNDNAPVFQNTAFSTSINETLPVGSVVFSVLAVDKDMGSAGMVVYSIEKVIPSTGDSEHLFRILANGSIVLNGSLSYNNKSAFYQLELKACDLGGMYHNTFTIQCSLPVFLSISVVDQPDLDPQFVREFYSASVAEDAAKGTSVLTVEAVDGDKGINDPVIYSISYSTRPGWFDIGADGVIRVNGSLDREQLLEADEEVQLQVTATETHLNIYGQEAKVSIWVTVRVMDVNDHKPEFYNCSLPACTFTPEEAQVNFTGYVDEHASPRIPIDDLTMVVYDPDKGSNGTFLLSLGGPDAEAFSVSPERAVGSASVQVLVRVSALVDYERQTAMAVQVVATDSVSQNFSVAMVTIHLRDINDHRPTFPQSLYVLTVPEHSATGSVVTDSIHATDPDTGAWGQITYSLLPGNGADLFQVDPVSGTVTVRNGELLDRESQAVYYLTLQATDGGNLSSSTTLQIHLLDINDNAPVVSGSYNIFVQEEEGNVSVTIQAHDNDEPGTNNSRLLFNLLPGPYSHNFSLDPDTGLLRNLGPLDREAIDPALEGRIVLTVLVSDCGEPVLGTKVNVTITVEDINDNLPIFNQSSYNFTVKEEDPGVLVGVVKAWDADQTEANNRISFSLSGSGANYFMIRGLVLGAGWAEGYLRLPPDVSLDYETQPVFNLTVSAENPDPQGGETIVDVCVNVKDVNDNPPTLDVASLRGIRVAENGSQHGQVAVVVASDVDTSAQLEIQLVNILCTKAGVDVGSLCWGWFSVAANGSVYINQSKAIDYEACDLVTLVVRACDLATDPGFQAYSNNGSLLITIEDVNDNAPYFLPENKTFVIIPELVLPNREVASVRARDDDSGNNGVILFSILRVDFISKDGATIPFQGVFSIFTSSEADVFAGSIQPVTSLDSTLQGTYQVTVQARDRPSLGPFLEATTTLNLFTVDQSYRSRLQFSTPKEEVGANRQAINAALTQATRTTVYIVDIQDIDSAARARPHSYLDAYFVFPNGSALTLDELSVMIRNDQDSLTQLLQLGLVVLGSQESQESDLSKQLISVIIGLGVALLLVLVIMTMAFVCVRKSYNRKLQAMKAAKEARKTAAGVMPSAPAIPGTNMYNTERANPMLNLPNKDLGLEYLSPSNDLDSVSVNSLDDNSVDVDKNSQEIKEHRPPHTPPEPDPEPLSVVLLGRQAGASGQLEGPSYTNAGLDTTDL |
| no binding | – | mCherry-USH1C (harmonin/Usher syndrome 1C) (protein, UniProt Q9Y6N9 1-552) MDRKVAREFRHKVDFLIENDAEKDYLYDVLRMYHQTMDVAVLVGDLKLVINEPSRLPLFDAIRPLIPLKHQVEYDQLTPRRSRKLKEVRLDRLHPEGLGLSVRGGLEFGCGLFISHLIKGGQADSVGLQVGDEIVRINGYSISSCTHEEVINLIRTKKTVSIKVRHIGLIPVKSSPDEPLTWQYVDQFVSESGGVRGSLGSPGNRENKEKKVFISLVGSRGLGCSISSGPIQKPGIFISHVKPGSLSAEVGLEIGDQIVEVNGVDFSNLDHKEAVNVLKSSRSLTISIVAAAGRELFMTDRERLAEARQRELQRQELLMQKRLAMESNKILQEQQEMERQRRKEIAQKAAEENERYRKEMEQIVEEEEKFKKQWEEDWGSKEQLLLPKTITAEVHPVPLRKPKYDQGVEPELEPADDLDGGTEEQGEQDFRKYEEGFDPYSMFTPEQIMGKDVRLLRIKKEGSLDLALEGGVDSPIGKVVVSAVYERGAAERHGGIVKGDEIMAINGKIVTDYTLAEAEAALQKAWNQGGDWIDLVVAVCPPKEYDDELTFF |
